Experimental data published in PubChem BioAssay AID2685 (National Center for Advancing Translational Sciences (NCATS), 2010).
The list shows a part of the results. These are further read-outs of the screen, such as a control signal, another cell line or another target. No call is given for them. Compounds called inactive in the main read-out are mostly missing here. The note in brackets gives the kind of curve behind each potency; many fits are weak.

Assay: qHTS Assay for Lipid Storage Modulators in Drosophila S3 Cells;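 as to cell number change: cells counted by Cell Tracker Red CMTPX staining in the red channel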
Details: BODIPY lipid droplet fluorescence, 18-24 h; for cell number change: measured here: cell count max response, cells fed with added oleic acid
How it was run: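 Drosophila S3 cells got compounds at several concentrations plus oleic acid (400 uM solution). Laser-scanning cytometry with 488 nm excitation read lipid droplets at 500-530 nm and cells at 575-640 nm. Percent activity was relative to 20 uM Triacsin C.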

[1] = measured here: lipid fluorescence (Fed channel) AC50, cells fed with added oleic acid
[2] = measured here: cell number channel AC50, cells fed with added oleic acid

Compound: O=C(NNc1c2ccccc2nc2ccccc12)c1cccc(O)c1
- cell number change: -20%
- AC50 [1]: 18.4 µM [falling, single point]

Compound: O=C(O)c1ccc(OCc2cn3ccccc3n2)cc1
- cell number change: 15.4%

Compound: Cc1c(C)n(C)c2ccc(C(=O)NCCc3ccco3)cc12
- AC50 [1]: 2.59 µM [rising, single point]

Compound: CC(=O)c1sc(NC(=O)C2CC(=O)N(Cc3ccccc3)C2)nc1-c1ccccc1 (stereo not drawn)
- cell number change: -24.3%
- AC50 [1]: 8.2 µM [falling, partial curve]

Compound: COc1ccc(COC(=O)N/N=C(\C)CC(=O)Nc2ccc(Cl)cc2)cc1
- cell number change: 58.1%
- AC50 [2]: 4.11 µM [rising, partial curve]

Compound: COc1cc(/C=C/C(=O)OCC(=O)Nc2oc(C)c3c(C)n[nH]c(=O)c23)ccc1OC(F)F
- AC50 [2]: 0.013 µM [rising, full curve, poor fit]
- AC50 [1]: 0.517 µM [rising, partial curve, poor fit]

Compound: CC(=O)Oc1ccccc1-n1c(C)nc(=O)c(-c2ccccc2)c1C
- cell number change: -11%

Compound: CCNC(=O)CC1SC(=Nc2ccc(C)cc2)NC1=O (stereo not drawn)
- cell number change: -7.94%
- AC50 [2]: 6.51 µM [falling, partial curve, poor fit]

Compound: CC12CCC(=O)N1c1ccccc1C(=O)N2c1ccccc1 (stereo not drawn)
- cell number change: -92.7%
- AC50 [2]: 14.6 µM [falling, partial curve, poor fit]
- AC50 [1]: 18.4 µM [falling, partial curve]

Compound: O=C(COC(=O)c1c(F)cccc1Cl)NC1CCCCC1
- AC50 [2]: 5.8 µM [rising, single point]

Compound: COc1cccc(NC(=O)CN(C)C(=O)c2cc3ccccc3cc2OC)c1
- cell number change: 20.9%
- AC50 [1]: 7.31 µM [falling, partial curve]

Compound: Cc1cccc(CN2CCN(C(c3ccccc3)c3ccc(Cl)cc3)CC2)c1 (stereo not drawn)
- cell number change: -68.6%
- AC50 [2]: 18.4 µM [falling, single point]
- AC50 [1]: 16.4 µM [falling, single point]

Compound: CN(Cc1ccccc1)C(=O)Cc1ccccc1
- cell number change: -1.61%
- AC50 [1]: 0.326 µM [rising, partial curve, poor fit]

Compound: CN(Cc1ccccc1)C(=O)CCC1CCN(S(=O)(=O)N(C)C)CC1
- cell number change: 16.8%

Compound: O=C(CCCN1C(=O)C2CC=CCC2C1=O)Nc1cccc(F)c1 (stereo not drawn)
- cell number change: 33.1%
- AC50 [2]: 32.6 µM [rising, single point]

Compound: CC1CCN(c2nc3c(N)ncnc3n2[C@@H]2O[C@H](CO)[C@@H](O)[C@H]2O)CC1
- cell number change: -13.4%
- AC50 [1]: 3.66 µM [falling, full curve, poor fit]

Compound: Cn1nc(C(=O)NCc2ccccc2)c2c1-c1ccccc1S(=O)(=O)C2
- cell number change: 3.58%
- AC50 [1]: 0.731 µM [rising, single point]

Compound: Nc1ccc(C(=O)N/N=C\C=C\c2cccc([N+](=O)[O-])c2)cc1
- cell number change: 12%
- AC50 [2]: 0.731 µM [rising, partial curve, poor fit]
- AC50 [1]: 0.651 µM [rising, partial curve, poor fit]

Compound: COCCN(CCOC)S(=O)(=O)c1ccc(C(=O)Nc2c(C)n(C)n(-c3ccccc3)c2=O)cc1
- cell number change: -39%
- AC50 [2]: 32.6 µM [falling, single point]

Compound: CC1=NC(C#N)=C(C#N)NC(C)(C)C1
- cell number change: 25%
- AC50 [1]: 9.2 µM [rising, partial curve, poor fit]

Compound: COc1cccc(CN(C)C(=O)C(Cc2ccccc2)NC(=O)c2ccccc2)c1OC (stereo not drawn)
- cell number change: 13.1%
- AC50 [1]: 29.1 µM [rising, single point]

Compound: CCOc1ccccc1NC(=S)NCC1CCCO1 (stereo not drawn)
- AC50 [1]: 0.461 µM [falling, full curve, poor fit]

Compound: Cc1cc(C(=O)COC(=O)/C=C/c2ccc(F)cc2)c(C)n1C
- cell number change: -0.389%
- AC50 [1]: 0.326 µM [rising, full curve]

Compound: CCC(=O)c1ccc(OCC(O)Cn2nc(C)c(Br)c2C)cc1 (stereo not drawn)
- cell number change: -6.16%

Compound: CC(=O)Nc1ccc(C23CC4CC(CC(C4)C2)C3)cc1
- cell number change: -59.6%

Compound: COc1ccccc1N1CCN(c2nnc(-c3ccc(F)cc3)c3ccccc23)CC1
- cell number change: -14.8%

Compound: O=C(NC1CCCCC1)C(c1ccc(F)cc1)N(Cc1ccco1)C(=O)Cn1nnc2ccccc21 (stereo not drawn)
- AC50 [1]: 7.31 µM [falling, partial curve, poor fit]

Compound: O=C(CN1C(=O)C2C3C=CC(C3)C2C1=O)NC1CCCc2ccccc21 (stereo not drawn)
- cell number change: -4.52%
- AC50 [1]: 6.51 µM [falling, single point]

Compound: C=CCOc1ccc(C2NC(=S)NC3=C2CCc2ccccc23)cc1 (stereo not drawn)
- cell number change: 38.9%
- AC50 [2]: 4.61 µM [rising, full curve, poor fit]
- AC50 [1]: 5.8 µM [rising, full curve]

Compound: N#C/C(=C\c1cccc(Cl)c1)c1n[nH]c(Cn2cncn2)n1
- cell number change: 39.6%
- AC50 [2]: 14.6 µM [rising, partial curve]
- AC50 [1]: 6.51 µM [falling, partial curve, poor fit]

Compound: Oc1ccccc1N1CCN(c2nnnn2-c2ccccc2)CC1
- cell number change: 14.6%
- AC50 [1]: 0.517 µM [rising, partial curve, poor fit]

Compound: Cc1ccc(C(=O)C2=C(O)C(=O)N(CCCN3CCOCC3)C23C(=O)N(C)c2ccccc23)o1 (stereo not drawn)
- cell number change: -18.6%
- AC50 [1]: 23.1 µM [falling, partial curve, poor fit]

Compound: CC(C)c1nnc(NC(=O)COC(=O)/C=C/c2ccc([N+](=O)[O-])cc2)s1
- cell number change: 10.6%
- AC50 [2]: 1.03 µM [rising, partial curve]
- AC50 [1]: 0.651 µM [rising, full curve, poor fit]

Compound: CC(C)n1nc(C(=O)Nc2cccc(S(=O)(=O)N3CCOCC3)c2)c2ccccc2c1=O
- cell number change: 3.55%
- AC50 [1]: 29.1 µM [falling, single point]

Compound: COc1ccc(S(=O)(=O)NCc2cccnc2)cc1C(=O)NC1CCCCC1
- cell number change: -2.76%

Compound: O=C(COC(=O)CNC(=O)c1ccco1)Nc1ncc(Cl)cc1Cl
- cell number change: -22.9%
- AC50 [1]: 0.13 µM [falling, full curve]

Compound: Nc1c(C(=O)N2CCCCC2)sc2nc3c(cc12)CCCC3
- cell number change: 34.9%
- AC50 [2]: 0.0326 µM [rising, full curve, poor fit]

Compound: O=C(NCCCC1CCCC1)C1CCC(=O)N(Cc2ccc(Cl)cc2)C1 (stereo not drawn)
- cell number change: -26.1%
- AC50 [2]: 0.731 µM [falling, single point]
- AC50 [1]: 8.2 µM [falling, partial curve, poor fit]

Compound: CCN(CC)C(=O)c1sc2nc(Cc3ccccc3)[nH]c(=O)c2c1C
- cell number change: 12.3%

Compound: Cc1cccc(OCc2nnc(SCC(=O)c3ccccc3)o2)c1
- cell number change: 4.21%
- AC50 [1]: 1.84 µM [rising, full curve, poor fit]

Compound: Cc1ccc(C(C)NC(=O)c2ccc3c(c2)OCO3)cc1C (stereo not drawn)
- cell number change: 19.9%
- AC50 [1]: 29.1 µM [rising, single point]

Compound: Cc1ccc(C(=O)NCc2ccc3c(c2)OCO3)cc1Cl
- cell number change: -1.59%
- AC50 [1]: 29.1 µM [rising, single point]

Compound: COc1ccc(/C=N/NC(=O)c2ccc(-c3ccccc3)cc2)cc1O
- cell number change: -38.9%
- AC50 [2]: 25.9 µM [falling, partial curve, poor fit]
- AC50 [1]: 1.03 µM [falling, full curve, poor fit]

Compound: O=C1c2ccccc2C(=O)N1CCCc1nc2ccccc2c(=O)n1Cc1ccco1
- AC50 [2]: 6.51 µM [rising, single point]

Compound: N#Cc1ccccc1
- cell number change: 11.4%

Compound: CCOc1ccc2oc(=O)cc(C)c2c1
- AC50 [2]: 4.11 µM [rising, partial curve]

Compound: CC(Oc1ccc2c3c(c(=O)oc2c1)CCCC3)C(=O)NCc1ccccn1 (stereo not drawn)
- cell number change: -6.78%
- AC50 [1]: 29.1 µM [falling, single point]

Compound: CC(C)(C)C1CCc2onc(C(=O)Nc3cccnc3)c2C1 (stereo not drawn)
- cell number change: -41.1%
- AC50 [2]: 29.1 µM [falling, single point]

Compound: CCCSc1nnc2nc3c(nn12)c1ccccc1n3C
- cell number change: 38.5%
- AC50 [2]: 16.4 µM [rising, single point]

Compound: Cc1noc(C)c1C(=O)N1CCN(c2ccccc2O)CC1
- cell number change: 33.5%
- AC50 [2]: 8.2 µM [rising, partial curve, poor fit]

Compound: Cc1ccc(C)c(S(=O)(=O)N2CCN(CC(=O)Nc3ccc([N+](=O)[O-])cc3)CC2)c1
- AC50 [2]: 0.58 µM [falling, single point]

Compound: COc1ccc2c(c1)Sc1ccccc1N2CCN(C)C
- cell number change: -23.7%
- AC50 [1]: 0.58 µM [falling, single point]

Compound: CCC(CO)NCC#Cc1ccccc1 (stereo not drawn)
- cell number change: 104%
- AC50 [1]: 20.6 µM [rising, single point]

Compound: COc1ccc(Nc2ccc(S(=O)(=O)N3CCCCCC3)cc2[N+](=O)[O-])cc1
- cell number change: -57.3%
- AC50 [2]: 18.4 µM [falling, single point]
- AC50 [1]: 18.4 µM [falling, single point]

Compound: COc1ccc(/C(C)=N/NC(=O)c2sccc2-n2cccc2)cc1
- cell number change: 2.85%
- AC50 [1]: 0.146 µM [falling, single point]

Compound: COCCCN=CC1=C(O)CC(C)(C)CC1=O
- cell number change: -10.7%
- AC50 [1]: 2.91 µM [rising, single point]

Compound: Cc1[nH]n(-c2ccc(Br)cc2)c(=O)c1/C=N/NC(=O)c1ccccc1
- cell number change: -41.8%
- AC50 [2]: 20.6 µM [falling, single point]

Compound: COc1ccc(OC)c2[nH]c(=O)c(CCNC(=O)c3cc4ccccc4o3)cc12
- AC50 [2]: 0.731 µM [rising, single point]

Compound: COC(=O)c1cccc(NC(=O)/C=C/c2ccc([N+](=O)[O-])cc2)c1
- cell number change: 6.66%
- AC50 [1]: 6.51 µM [rising, partial curve, poor fit]

Compound: Nc1cc(=O)[nH]c(SCC(=O)Nc2cc(Cl)cc(Cl)c2)n1
- AC50 [1]: 0.116 µM [falling, full curve, poor fit]

Compound: CC(=O)c1ccc(OCCCC(=O)Nc2ccc(S(=O)(=O)N3CCOCC3)cc2)cc1
- cell number change: 38.7%
- AC50 [2]: 8.2 µM [rising, partial curve, poor fit]
